Measurements from patent US20090148512A1, “NOVEL USES OF CHLORAMPHENICOL AND ANALOGOUS THEREOF” (LANNETT CO INC, priority 2007, published 2009).
At least one compound was matched to its structure with a doubt left.

Key:
[1] = tested on: MRSA; experiment: In vitro activity (MIC) against MRSA strains collected in 2005; format: cell-based, Staphylococcus aureus
[2] = tested on: susceptible Staphylococcus aureus (MSSA); experiment: In vitro activity (MIC) against susceptible Staphylococcus aureus (MSSA) strains collected in 2005; format: cell-based
[3] = North America 2005, 1,158 strains
[4] = North America and Europe 2005, 1,644 strains
[5] = North America 2005, 1,232 strains
[6] = North America and Europe 2005, 2,276 strains

| Compound | Range (MIC) [1, 3] | Range (MIC) [1, 4] | Range (MIC) ([2]; Europe 2005, 1,044 strains) | Range (MIC) [2, 5] | Range (MIC) [2, 6] |
| --- | --- | --- | --- | --- | --- |
| C[C@H]1COc2c(N3CCN(C)CC3)c(F)cc3c(=O)c(C(=O)O)cn1c23 [Levofloxacin] | ≦0.5->4 | ≦0.5->4 | ≦0.5->4 | ≦0.5->4 | ≦0.5->4 |
| CCC[C@@H]1C[C@@H](C(=O)N[C@@H]([C@H]2O[C@H](SC)[C@H](O)[C@@H](O)[C@H]2O)[C@H](C)Cl)N(C)C1 [Clindamycin] | ≦0.25->2 | ≦0.25->2 | ≦0.25->2 | ≦0.25->2 | ≦0.25->2 |
| CN(C)[C@@H]1C(O)=C(C(N)=O)C(=O)[C@@]2(O)C(O)=C3C(=O)c4c(O)cccc4[C@@](C)(O)[C@H]3C[C@@H]12 [Tetracycline] | ≦2->8 | ≦2->8 | ≦2->8 | ≦2->8 | ≦2->8 |
